Results taken from the supplement of paper PMC10849652.
Some of the results follow.

By UniProt entry, the sequences of proteins in these tests, tags left out. Where a name states a change or a piece, a line headed by the entry shows the natural chain unless it says otherwise.
UniProt Q17R31: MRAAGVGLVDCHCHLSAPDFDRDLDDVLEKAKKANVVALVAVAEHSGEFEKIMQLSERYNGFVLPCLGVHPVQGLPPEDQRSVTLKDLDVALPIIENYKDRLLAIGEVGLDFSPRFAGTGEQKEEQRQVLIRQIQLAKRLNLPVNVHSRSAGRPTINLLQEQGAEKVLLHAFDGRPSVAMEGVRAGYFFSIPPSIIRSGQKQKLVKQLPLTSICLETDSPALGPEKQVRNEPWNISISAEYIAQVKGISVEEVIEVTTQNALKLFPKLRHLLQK
UniProt O43760: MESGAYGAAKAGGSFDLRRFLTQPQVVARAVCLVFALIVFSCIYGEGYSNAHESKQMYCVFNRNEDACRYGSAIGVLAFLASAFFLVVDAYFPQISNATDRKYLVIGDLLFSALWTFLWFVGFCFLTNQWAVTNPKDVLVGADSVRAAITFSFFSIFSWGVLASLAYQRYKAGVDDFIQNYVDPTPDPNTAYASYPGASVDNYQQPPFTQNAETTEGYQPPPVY
UniProt P46977: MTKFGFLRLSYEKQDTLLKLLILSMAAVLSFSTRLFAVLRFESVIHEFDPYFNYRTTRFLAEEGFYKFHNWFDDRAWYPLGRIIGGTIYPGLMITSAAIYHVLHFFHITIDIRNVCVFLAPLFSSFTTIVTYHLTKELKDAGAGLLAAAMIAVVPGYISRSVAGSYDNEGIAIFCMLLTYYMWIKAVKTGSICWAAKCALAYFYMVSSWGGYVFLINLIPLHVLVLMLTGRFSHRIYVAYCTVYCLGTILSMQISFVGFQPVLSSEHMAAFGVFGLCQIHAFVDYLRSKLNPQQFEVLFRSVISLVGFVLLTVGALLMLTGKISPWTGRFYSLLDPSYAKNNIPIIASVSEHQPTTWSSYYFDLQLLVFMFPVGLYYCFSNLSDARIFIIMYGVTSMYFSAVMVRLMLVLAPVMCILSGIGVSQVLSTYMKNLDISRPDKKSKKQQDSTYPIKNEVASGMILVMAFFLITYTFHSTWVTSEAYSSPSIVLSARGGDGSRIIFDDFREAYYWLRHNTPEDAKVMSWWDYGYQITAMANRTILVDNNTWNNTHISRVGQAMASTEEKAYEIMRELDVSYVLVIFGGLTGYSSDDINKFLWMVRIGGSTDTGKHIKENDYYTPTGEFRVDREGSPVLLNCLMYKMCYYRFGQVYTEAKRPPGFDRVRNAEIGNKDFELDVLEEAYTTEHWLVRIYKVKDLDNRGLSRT
UniProt Q9UBS9: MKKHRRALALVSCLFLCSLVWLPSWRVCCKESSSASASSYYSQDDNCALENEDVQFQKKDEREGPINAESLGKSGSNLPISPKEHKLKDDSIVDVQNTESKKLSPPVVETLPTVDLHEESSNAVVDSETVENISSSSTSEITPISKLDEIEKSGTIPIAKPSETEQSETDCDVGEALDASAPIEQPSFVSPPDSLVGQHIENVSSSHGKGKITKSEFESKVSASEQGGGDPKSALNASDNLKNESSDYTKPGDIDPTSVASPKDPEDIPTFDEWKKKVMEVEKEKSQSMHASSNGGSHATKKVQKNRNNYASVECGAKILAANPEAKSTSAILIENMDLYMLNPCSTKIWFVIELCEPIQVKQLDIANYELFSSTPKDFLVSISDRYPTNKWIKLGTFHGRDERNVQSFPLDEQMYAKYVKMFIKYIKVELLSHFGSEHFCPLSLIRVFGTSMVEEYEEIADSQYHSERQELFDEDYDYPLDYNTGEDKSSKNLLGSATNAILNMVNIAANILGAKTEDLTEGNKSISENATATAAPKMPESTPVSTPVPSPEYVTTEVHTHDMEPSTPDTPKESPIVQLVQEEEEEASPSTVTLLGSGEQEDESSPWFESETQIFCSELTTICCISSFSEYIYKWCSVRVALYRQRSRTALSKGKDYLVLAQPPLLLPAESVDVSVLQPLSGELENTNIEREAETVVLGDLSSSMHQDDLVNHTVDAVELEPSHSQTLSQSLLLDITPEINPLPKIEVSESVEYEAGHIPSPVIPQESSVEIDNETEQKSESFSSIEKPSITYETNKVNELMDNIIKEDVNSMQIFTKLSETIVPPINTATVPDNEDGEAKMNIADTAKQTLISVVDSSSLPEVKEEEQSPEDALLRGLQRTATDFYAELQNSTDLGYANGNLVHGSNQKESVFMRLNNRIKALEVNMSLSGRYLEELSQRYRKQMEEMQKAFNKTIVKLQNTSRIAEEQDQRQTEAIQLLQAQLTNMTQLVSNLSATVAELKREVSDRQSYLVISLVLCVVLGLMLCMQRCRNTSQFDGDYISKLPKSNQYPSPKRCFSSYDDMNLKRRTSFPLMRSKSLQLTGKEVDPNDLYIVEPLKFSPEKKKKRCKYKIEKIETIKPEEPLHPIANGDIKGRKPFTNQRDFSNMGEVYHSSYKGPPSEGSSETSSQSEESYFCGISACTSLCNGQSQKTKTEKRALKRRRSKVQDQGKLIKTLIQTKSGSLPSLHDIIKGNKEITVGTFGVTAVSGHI
UniProt Q8TCJ2: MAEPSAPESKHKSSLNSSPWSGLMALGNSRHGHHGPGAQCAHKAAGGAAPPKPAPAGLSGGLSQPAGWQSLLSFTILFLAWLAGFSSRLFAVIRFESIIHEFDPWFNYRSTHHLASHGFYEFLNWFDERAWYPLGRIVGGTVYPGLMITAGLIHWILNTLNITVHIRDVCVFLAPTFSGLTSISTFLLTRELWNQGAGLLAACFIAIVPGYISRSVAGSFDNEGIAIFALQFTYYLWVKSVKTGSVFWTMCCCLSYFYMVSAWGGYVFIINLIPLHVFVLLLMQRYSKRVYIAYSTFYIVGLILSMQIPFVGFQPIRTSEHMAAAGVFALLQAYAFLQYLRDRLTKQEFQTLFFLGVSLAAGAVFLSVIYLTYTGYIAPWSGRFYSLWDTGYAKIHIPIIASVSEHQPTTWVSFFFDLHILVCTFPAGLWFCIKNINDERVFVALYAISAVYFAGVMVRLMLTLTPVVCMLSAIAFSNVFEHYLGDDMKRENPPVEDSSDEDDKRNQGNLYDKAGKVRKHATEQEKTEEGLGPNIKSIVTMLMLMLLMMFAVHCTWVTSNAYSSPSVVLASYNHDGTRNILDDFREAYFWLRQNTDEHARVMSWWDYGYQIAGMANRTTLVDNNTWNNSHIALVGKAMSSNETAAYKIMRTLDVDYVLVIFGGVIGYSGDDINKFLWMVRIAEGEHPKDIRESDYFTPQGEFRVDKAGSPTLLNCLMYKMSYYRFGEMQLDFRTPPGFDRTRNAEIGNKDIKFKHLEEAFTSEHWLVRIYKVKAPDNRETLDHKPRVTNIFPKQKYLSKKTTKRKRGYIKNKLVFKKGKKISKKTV
UniProt P37802: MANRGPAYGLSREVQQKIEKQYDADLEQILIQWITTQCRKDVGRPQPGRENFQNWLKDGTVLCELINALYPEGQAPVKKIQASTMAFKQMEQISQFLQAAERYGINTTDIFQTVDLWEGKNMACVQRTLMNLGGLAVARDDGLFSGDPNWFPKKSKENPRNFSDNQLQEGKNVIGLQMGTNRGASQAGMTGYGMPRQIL
UniProt Q9NRL3: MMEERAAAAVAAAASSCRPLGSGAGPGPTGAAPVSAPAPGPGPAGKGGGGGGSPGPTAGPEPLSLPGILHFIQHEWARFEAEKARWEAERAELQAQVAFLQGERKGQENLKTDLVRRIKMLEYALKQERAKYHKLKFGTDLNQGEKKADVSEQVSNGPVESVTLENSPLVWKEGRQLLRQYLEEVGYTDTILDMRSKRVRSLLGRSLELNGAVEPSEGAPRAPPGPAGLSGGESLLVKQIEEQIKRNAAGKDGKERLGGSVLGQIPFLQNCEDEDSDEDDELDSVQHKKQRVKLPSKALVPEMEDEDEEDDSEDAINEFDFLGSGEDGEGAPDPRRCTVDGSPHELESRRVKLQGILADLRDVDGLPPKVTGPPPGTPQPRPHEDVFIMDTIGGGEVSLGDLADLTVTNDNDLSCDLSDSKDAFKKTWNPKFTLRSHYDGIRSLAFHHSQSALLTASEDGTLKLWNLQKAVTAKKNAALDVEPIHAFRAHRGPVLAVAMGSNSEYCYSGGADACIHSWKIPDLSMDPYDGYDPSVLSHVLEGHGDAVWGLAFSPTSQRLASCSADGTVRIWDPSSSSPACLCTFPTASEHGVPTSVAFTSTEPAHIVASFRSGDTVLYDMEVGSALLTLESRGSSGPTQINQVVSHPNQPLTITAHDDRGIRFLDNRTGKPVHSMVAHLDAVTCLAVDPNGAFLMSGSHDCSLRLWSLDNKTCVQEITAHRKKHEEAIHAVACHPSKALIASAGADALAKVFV
UniProt Q8N300: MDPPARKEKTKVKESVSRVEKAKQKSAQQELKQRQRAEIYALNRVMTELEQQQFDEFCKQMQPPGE
UniProt Q7Z422: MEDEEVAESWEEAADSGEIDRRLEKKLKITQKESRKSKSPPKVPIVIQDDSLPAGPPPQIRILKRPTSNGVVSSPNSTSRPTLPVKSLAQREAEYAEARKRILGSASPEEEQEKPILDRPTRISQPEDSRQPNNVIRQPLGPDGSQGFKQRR
UniProt A2RTX5: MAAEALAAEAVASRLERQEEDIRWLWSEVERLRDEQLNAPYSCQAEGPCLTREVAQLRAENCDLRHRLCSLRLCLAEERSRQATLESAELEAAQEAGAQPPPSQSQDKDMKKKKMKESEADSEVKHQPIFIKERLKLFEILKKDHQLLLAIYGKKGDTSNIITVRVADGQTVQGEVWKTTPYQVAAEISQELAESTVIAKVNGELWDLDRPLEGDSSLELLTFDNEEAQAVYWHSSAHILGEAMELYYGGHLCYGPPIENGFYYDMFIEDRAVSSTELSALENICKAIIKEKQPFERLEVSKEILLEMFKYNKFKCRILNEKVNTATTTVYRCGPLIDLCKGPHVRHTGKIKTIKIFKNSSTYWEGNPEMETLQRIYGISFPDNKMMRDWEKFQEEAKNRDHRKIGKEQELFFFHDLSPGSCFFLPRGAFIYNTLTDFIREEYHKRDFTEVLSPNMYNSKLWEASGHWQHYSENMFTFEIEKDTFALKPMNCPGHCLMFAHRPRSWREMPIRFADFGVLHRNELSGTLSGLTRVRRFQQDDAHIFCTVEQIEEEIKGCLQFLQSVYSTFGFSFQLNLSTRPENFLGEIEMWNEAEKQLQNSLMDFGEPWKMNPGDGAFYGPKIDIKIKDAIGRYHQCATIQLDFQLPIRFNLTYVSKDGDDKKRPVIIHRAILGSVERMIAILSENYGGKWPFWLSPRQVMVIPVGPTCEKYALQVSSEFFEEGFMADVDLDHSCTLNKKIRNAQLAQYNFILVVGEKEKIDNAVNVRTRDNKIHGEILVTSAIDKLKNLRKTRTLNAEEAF
UniProt Q86TM6, whole entry, looked up: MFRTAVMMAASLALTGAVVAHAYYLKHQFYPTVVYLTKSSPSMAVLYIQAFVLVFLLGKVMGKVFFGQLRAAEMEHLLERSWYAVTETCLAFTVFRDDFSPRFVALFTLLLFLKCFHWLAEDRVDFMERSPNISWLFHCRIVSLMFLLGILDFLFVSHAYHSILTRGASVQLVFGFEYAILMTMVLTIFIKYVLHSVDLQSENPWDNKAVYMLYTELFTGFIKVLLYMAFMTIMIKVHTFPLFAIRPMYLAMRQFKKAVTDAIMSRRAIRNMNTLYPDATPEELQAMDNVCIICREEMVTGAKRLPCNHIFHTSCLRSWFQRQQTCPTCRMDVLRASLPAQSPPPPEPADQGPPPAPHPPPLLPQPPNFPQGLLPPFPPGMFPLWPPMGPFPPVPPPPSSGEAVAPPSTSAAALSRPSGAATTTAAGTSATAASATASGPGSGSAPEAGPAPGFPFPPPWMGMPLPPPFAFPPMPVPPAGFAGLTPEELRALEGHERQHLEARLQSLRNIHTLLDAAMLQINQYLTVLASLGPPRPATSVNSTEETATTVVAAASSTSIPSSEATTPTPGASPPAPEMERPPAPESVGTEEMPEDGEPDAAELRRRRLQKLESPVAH
UniProt Q86Y82: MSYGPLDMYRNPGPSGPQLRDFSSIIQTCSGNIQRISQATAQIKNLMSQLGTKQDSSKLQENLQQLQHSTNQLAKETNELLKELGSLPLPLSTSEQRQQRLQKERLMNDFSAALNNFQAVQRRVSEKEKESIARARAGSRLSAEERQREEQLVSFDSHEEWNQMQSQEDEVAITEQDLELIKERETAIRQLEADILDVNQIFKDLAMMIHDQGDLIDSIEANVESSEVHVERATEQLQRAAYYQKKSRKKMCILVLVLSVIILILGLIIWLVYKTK
UniProt Q7RTN6: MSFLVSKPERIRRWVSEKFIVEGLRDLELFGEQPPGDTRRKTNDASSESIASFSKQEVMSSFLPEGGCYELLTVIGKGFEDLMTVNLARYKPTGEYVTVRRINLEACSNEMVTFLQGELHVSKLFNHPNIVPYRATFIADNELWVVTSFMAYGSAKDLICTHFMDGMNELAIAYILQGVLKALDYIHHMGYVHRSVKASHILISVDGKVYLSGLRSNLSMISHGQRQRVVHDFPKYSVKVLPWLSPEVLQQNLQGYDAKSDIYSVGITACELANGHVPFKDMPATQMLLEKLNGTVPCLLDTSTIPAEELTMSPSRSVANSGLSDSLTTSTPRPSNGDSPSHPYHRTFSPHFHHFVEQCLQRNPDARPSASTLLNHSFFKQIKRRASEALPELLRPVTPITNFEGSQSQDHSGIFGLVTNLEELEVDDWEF

Compound: O=C1NC(=O)C(c2cnc3ccccn23)=C1c1cn2c3c(cc(F)cc13)CN(C(=O)N1CCCCC1)CC2
Experiment: log2 fold change, soluble protein after heating vs DMSO (PISA); higher = thermal stabilisation; K562 cells, 10 uM, 30 min; active = over 0.2 and 3.5 SD of the protein, either way, in both replicates (recomputed)
Summary of the method: (§1)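 K562 cells (2×10^6 cells/mL) were treated with 10 μM compound for 30 min, and aliquots were heated for 3 min over 48°C-58°C. Pooled aliquots were extracted in PBS with 0.5% NP-40 at 4°C, and the supernatant after 21,000xg for 90 min was measured by TMTpro 16plex LC-MS/MS with channel sums equalised. Reported thermal stability, relative to control samples and from duplicates, is a log2 fold change.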

log2 fold change, inactive:
TATDN3 isoform 3 (UniProt Q17R31) -0.043
SYNJ1 (UniProt O43426) -0.092
SYNJ2BP-COX16, A0A087WYV9 0.012
STX10 (UniProt O60499) -0.034
SYNGR2 (UniProt O43760) -0.005
SYNRG (UniProt Q9UMZ2) 0.003
SUCLG2 (UniProt Q96I99) -0.026
TAF2 (UniProt Q6P1X5) 0.105
STT3A (UniProt P46977) 0.002
SUCO (UniProt Q9UBS9) 0.055
STT3B (UniProt Q8TCJ2) 0.001
TAGLN2 isoform 2 (UniProt P37802) -0.035
STRN4 isoform 3 (UniProt Q9NRL3) -0.155
STRIP1 (UniProt Q5VSL9) 0.078
TAF10 (UniProt Q12962) 0.1
SUPV3L1 (UniProt Q8IYB8) -0.019
TACO1 (UniProt Q9BSH4) -0.141
SYAP1 (UniProt Q96A49) -0.015
TARDBP (UniProt Q13148) 0.232
STXBP1 (UniProt P61764) 0.158
TAPT1 (UniProt Q6NXT6) 0.017
TACC3 (UniProt Q9Y6A5) -0.032
STX5 (UniProt Q13190) 0.074
STMN1 (UniProt P16949) -0.007
TAF7 (UniProt Q15545) -0.081
SUGT1 (UniProt Q9Y2Z0) -0.036
TAB1 (UniProt Q15750) 0.004
SVBP (UniProt Q8N300) 0.047
SYNCRIP (UniProt O60506) 0.094
SZRD1 (UniProt Q7Z422) -0.01
TARSL2 (UniProt A2RTX5) -0.004
SYVN1 (UniProt Q86TM6) 0.005
TAF8 isoform 2 (UniProt Q7Z7C8) -0.013
STX16 isoform 2 (UniProt O14662) -0.259
TAF15 (UniProt Q92804) 0.089
TANGO2 isoform 4 (UniProt Q6ICL3) -0.071
STX12 (UniProt Q86Y82) -0.022
STRIP2 (UniProt Q9ULQ0) 0.063
STRADA (UniProt Q7RTN6) -0.095

Compound: c1cc(OCCN2CCCCC2)cc(-c2n[nH]c3ccc(-c4nnc[nH]4)cc23)c1
Experiment: as above
Summary of the method: as §1

log2 fold change, inactive:
TATDN3 isoform 3 (UniProt Q17R31) 0.001
SYNJ1 (UniProt O43426) -0.104
SYNJ2BP-COX16, A0A087WYV9 0.011
STX10 (UniProt O60499) 0.062
SYNGR2 (UniProt O43760) 0.077
SYNRG (UniProt Q9UMZ2) -0.023
SUCLG2 (UniProt Q96I99) -0.032
TAF2 (UniProt Q6P1X5) -0.114
STT3A (UniProt P46977) -0.072
SUCO (UniProt Q9UBS9) -0.36
STT3B (UniProt Q8TCJ2) -0.045
TAGLN2 isoform 2 (UniProt P37802) -0.008
STRN4 isoform 3 (UniProt Q9NRL3) -0.045
STRIP1 (UniProt Q5VSL9) 0.021
TAF10 (UniProt Q12962) 0.004
SUPV3L1 (UniProt Q8IYB8) -0.029
TACO1 (UniProt Q9BSH4) 0.092
SYAP1 (UniProt Q96A49) 0.024
TARDBP (UniProt Q13148) -0.129
STXBP1 (UniProt P61764) 0.162
TAPT1 (UniProt Q6NXT6) 0.01
TACC3 (UniProt Q9Y6A5) 0.023
STX5 (UniProt Q13190) -0.079
STMN1 (UniProt P16949) 0.052
TAF7 (UniProt Q15545) -0.052
SUGT1 (UniProt Q9Y2Z0) 0.008
TAB1 (UniProt Q15750) -0.046
SVBP (UniProt Q8N300) 0.03
SYNCRIP (UniProt O60506) -0.118
SZRD1 (UniProt Q7Z422) 0.015
TARSL2 (UniProt A2RTX5) -0.005
SYVN1 (UniProt Q86TM6) -0.051
TAF8 isoform 2 (UniProt Q7Z7C8) 0.008
STX16 isoform 2 (UniProt O14662) -0.086
TAF15 (UniProt Q92804) -0.112
TANGO2 isoform 4 (UniProt Q6ICL3) -0.004
STX12 (UniProt Q86Y82) -0.001
STRIP2 (UniProt Q9ULQ0) -0.068
STRADA (UniProt Q7RTN6) -0.013
